Source: patent US20200140551A1
These are yes or no findings as the source states them, for the method shown. Some entries that bind do so weakly or less than the wild type.

Molecular target: cynomolgus ICOS (cynomolgus)
Assay: screen of the humanized variants; method not described

B1: 422 H2L5 IgG1 WT (antibody, V domains shown)
VH: QVQLVQSGAEVKKPGSSVKVSCKASGYTFTDYAMHWVRQAPGQGLEWMGLISIYSDHTNYNQKFQGRVTITADKSTSTAYMELSSLRSEDTAVYYCGRNNYGNYGWYFDVWGQGTTVTVSS
VL: EIVLTQSPATLSLSPGERATLSCSASSSVSYMHWYQQKPGQAPRLLIYDTSKLASGIPARFSGSGSGTDYTLTISSLEPEDFAVYYCFQGSGYPYTFGQGTKLEIK
**Q.** How did the binding turn out when B1 was run?
**A.** binds
